# This is one part of the list.
# B1: PX14351B-bth-512-36-512 (Bacteroides thetaiotaomicron) (protein)
# chain: ASETQQWKTLEDTRSALMGVYGLTRAALADNNTHWICGDLRKGDFTVYKRSDLQAVSDNELNKPYDLLKKVSNWRRFYAVINAASVFMEKAPRTVELDRSYSEQNLKYDIAQVRALRAFAYFYMVRIWGDVPLVTYSYDNGTFPSMPRTDAQTVLSYAKAELLTAIEDLPYQYGTQTNLYYGSYGAQWQGKLFNKLSAYSVLAHICAWQGNYAEAETYSAFIIDHASEINAKYTSIADLTSETGLFYSNASVKGSRILGFNFAHNDNEATQSGHLEQLTLAYPLVQKSYPEIYISKDSLFSIFTNFDDLRFGIIDTIKYSSYYVQNLNEETPVFSKIKIIQDGSAKDNDFGVFGSSIVFTRLEDITLLRAEALCALNRSTEAVSYLNMIRTNRGLREVSFKKDFGNNRESLIAEIFEERRRELMGEGWRWYDLVRRQKLMKDNEAFLRLISSGGIYWPVSEDIITANSQIEQNEFWK
# Experiments:
# Assay in all cases: glycan array binding signal (z-score within array); higher = stronger binding
# Settings in all cases: glycan notation: IUPAC condensed, linker removed
# Fuc(a1-2)Gal = target: Fuc(a1-2)Gal
# How it was run: (§1)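 The binding signal is a Z-score computed within each array and averaged over linkers. Arrays of the same protein sequence at different concentrations or buffers were also averaged together. Data originate from 3228 arrays in the Consortium for Functional Glycomics database, kept only where the protein sequence was available.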
# Fuc(a1-2)Gal(b1-3)GalNAc = target: Fuc(a1-2)Gal(b1-3)GalNAc
# How it was run: as §1
# [1] = target: Fuc(a1-2)Gal(b1-3)GalNAc(a1-3)[Fuc(a1-2)]Gal(b1-4)Glc
# How it was run: as §1
# [2] = target: Fuc(a1-2)Gal(b1-3)GalNAc(a1-3)[Fuc(a1-2)]Gal(b1-4)GlcNAc
# How it was run: as §1
# [3] = target: Fuc(a1-2)Gal(b1-3)GalNAc(b1-3)Gal
# How it was run: as §1
# [4] = target: Fuc(a1-2)Gal(b1-3)GalNAc(b1-3)Gal(a1-4)Gal(b1-4)Glc
# How it was run: as §1
# [5] = target: Fuc(a1-2)Gal(b1-3)GalNAc(b1-4)[Neu5Ac(a2-3)]Gal(b1-4)Glc
# How it was run: as §1
# Fuc(a1-2)Gal(b1-3)GlcNAc = target: Fuc(a1-2)Gal(b1-3)GlcNAc
# How it was run: as §1
# [6] = target: Fuc(a1-2)Gal(b1-3)GlcNAc(b1-2)Man(a1-3)[Fuc(a1-2)Gal(b1-3)GlcNAc(b1-2)Man(a1-6)]Man(b1-4)GlcNAc(b1-4)GlcNAc
# How it was run: as §1
# [7] = target: Fuc(a1-2)Gal(b1-3)GlcNAc(b1-2)Man(a1-3)[Fuc(a1-2)Gal(b1-3)GlcNAc(b1-2)Man(a1-6)]Man(b1-4)GlcNAc(b1-4)[Fuc(a1-6)]GlcNAc
# How it was run: as §1
# [8] = target: Fuc(a1-2)Gal(b1-3)GlcNAc(b1-3)Gal(b1-4)Glc
# How it was run: as §1
# [9] = target: Fuc(a1-2)Gal(b1-3)GlcNAc(b1-3)GalNAc
# How it was run: as §1
# [10] = target: Fuc(a1-2)Gal(b1-3)GlcNAc(b1-3)[Fuc(a1-2)Gal(b1-3)GlcNAc(b1-6)]GalNAc
# How it was run: as §1
# [11] = target: Fuc(a1-2)Gal(b1-3)GlcNAc(b1-3)[Gal(b1-4)GlcNAc(b1-6)]Gal(b1-4)Glc
# How it was run: as §1
# [12] = target: Fuc(a1-2)Gal(b1-3)GlcNAc(b1-3)[Neu5Ac(a2-6)Gal(b1-4)GlcNAc(b1-6)]Gal(b1-4)Glc
# How it was run: as §1
# [13] = target: Fuc(a1-2)Gal(b1-3)GlcNAc6S
# How it was run: as §1
# [14] = target: Fuc(a1-2)Gal(b1-3)[Fuc(a1-4)]GlcNAc
# How it was run: as §1
# [15] = target: Fuc(a1-2)Gal(b1-3)[Fuc(a1-4)]GlcNAc(b1-2)Man(a1-3)[Fuc(a1-2)Gal(b1-3)[Fuc(a1-4)]GlcNAc(b1-2)Man(a1-3)]Man(b1-4)GlcNAc(b1-4)GlcNAc
# How it was run: as §1
# [16] = target: Fuc(a1-2)Gal(b1-3)[Fuc(a1-4)]GlcNAc(b1-2)Man(a1-3)[Fuc(a1-2)Gal(b1-3)[Fuc(a1-4)]GlcNAc(b1-2)Man(a1-6)]Man(b1-4)GlcNAc(b1-4)[Fuc(a1-6)]GlcNAc(b1-4)[Fuc(a1-6)]GlcNAc
# How it was run: as §1
# [17] = target: Fuc(a1-2)Gal(b1-3)[Fuc(a1-4)]GlcNAc(b1-3)[Fuc(a1-3)[Gal(b1-4)]GlcNAc(b1-6)]Gal(b1-4)Glc
# How it was run: as §1
# [18] = target: Fuc(a1-2)Gal(b1-3)[Fuc(a1-4)]GlcNAc(b1-3)[Gal(b1-4)GlcNAc(b1-6)]Gal(b1-4)Glc
# How it was run: as §1
# Fuc(a1-2)Gal(b1-4)Glc6S = target: Fuc(a1-2)Gal(b1-4)Glc6S
# How it was run: as §1
# Fuc(a1-2)Gal(b1-4)GlcNAc = target: Fuc(a1-2)Gal(b1-4)GlcNAc
# How it was run: as §1
# [19] = target: Fuc(a1-2)Gal(b1-4)GlcNAc(b1-2)Man
# How it was run: as §1
# [20] = target: Fuc(a1-2)Gal(b1-4)GlcNAc(b1-2)Man(a1-3)[Fuc(a1-2)Gal(b1-4)GlcNAc(b1-2)Man(a1-6)]Man(b1-4)GlcNAc(b1-4)GlcNAc
# How it was run: as §1
# [21] = target: Fuc(a1-2)Gal(b1-4)GlcNAc(b1-2)Man(a1-3)[Fuc(a1-2)Gal(b1-4)GlcNAc(b1-2)Man(a1-6)]Man(b1-4)GlcNAc(b1-4)[Fuc(a1-6)]GlcNAc
# How it was run: as §1
# [22] = target: Fuc(a1-2)Gal(b1-4)GlcNAc(b1-2)[Fuc(a1-2)Gal(b1-4)GlcNAc(b1-4)]Man(a1-3)[Fuc(a1-2)Gal(b1-4)GlcNAc(b1-2)Man(a1-6)]Man(b1-4)GlcNAc(b1-4)GlcNAc
# How it was run: as §1
# [23] = target: Fuc(a1-2)Gal(b1-4)GlcNAc(b1-3)Gal(b1-4)GlcNAc
# How it was run: as §1
# [24] = target: Fuc(a1-2)Gal(b1-4)GlcNAc(b1-3)Gal(b1-4)GlcNAc(b1-2)Man(a1-3)[Fuc(a1-2)Gal(b1-4)GlcNAc(b1-3)Gal(b1-4)GlcNAc(b1-2)Man(a1-6)]Man(b1-4)GlcNAc(b1-4)GlcNAc
# How it was run: as §1
# [25] = target: Fuc(a1-2)Gal(b1-4)GlcNAc(b1-3)Gal(b1-4)GlcNAc(b1-3)Gal(b1-4)GlcNAc
# How it was run: as §1
# [26] = target: Fuc(a1-2)Gal(b1-4)GlcNAc(b1-3)GalNAc
# How it was run: as §1
# [27] = target: Fuc(a1-2)Gal(b1-4)GlcNAc(b1-3)[Fuc(a1-2)Gal(b1-4)GlcNAc(b1-6)]GalNAc
# How it was run: as §1
# [28] = target: Fuc(a1-2)Gal(b1-4)GlcNAc(b1-3)[Fuc(a1-3)[Gal(b1-4)]GlcNAc(b1-6)]Gal(b1-4)Glc
# How it was run: as §1
# [29] = target: Fuc(a1-2)Gal(b1-4)GlcNAc(b1-6)GalNAc
# How it was run: as §1
# [30] = target: Fuc(a1-2)Gal(b1-4)GlcNAc6S
# How it was run: as §1
# [31] = target: Fuc(a1-2)Gal(b1-4)[Fuc(a1-3)]GlcNAc
# How it was run: as §1
# [32] = target: Fuc(a1-2)Gal(b1-4)[Fuc(a1-3)]GlcNAc(b1-2)Man(a1-3)[Fuc(a1-2)Gal(b1-4)[Fuc(a1-3)]GlcNAc(b1-2)Man(a1-6)]Man(b1-4)GlcNAc(b1-4)[Fuc(a1-6)]GlcNAc
# How it was run: as §1
binder,measurement,setting,value
B1,glycan array binding signal (z-score),Fuc(a1-2)Gal,-0.213
same,glycan array binding signal (z-score),Fuc(a1-2)Gal(b1-3)GalNAc,-0.196
same,glycan array binding signal (z-score),[1],-0.105
same,glycan array binding signal (z-score),[2],-0.211
same,glycan array binding signal (z-score),[3],-0.333
same,glycan array binding signal (z-score),[4],-0.283
same,glycan array binding signal (z-score),[5],-0.23
same,glycan array binding signal (z-score),Fuc(a1-2)Gal(b1-3)GlcNAc,-0.181
same,glycan array binding signal (z-score),[6],0.253
same,glycan array binding signal (z-score),[7],-0.176
same,glycan array binding signal (z-score),[8],-0.331
same,glycan array binding signal (z-score),[9],-0.124
same,glycan array binding signal (z-score),[10],-0.137
same,glycan array binding signal (z-score),[11],-0.26
same,glycan array binding signal (z-score),[12],-0.082
same,glycan array binding signal (z-score),[13],0.101
same,glycan array binding signal (z-score),[14],-0.358
same,glycan array binding signal (z-score),[15],0.478
same,glycan array binding signal (z-score),[16],-0.147
same,glycan array binding signal (z-score),[17],-0.359
same,glycan array binding signal (z-score),[18],0.018
same,glycan array binding signal (z-score),Fuc(a1-2)Gal(b1-4)Glc6S,0.658
same,glycan array binding signal (z-score),Fuc(a1-2)Gal(b1-4)GlcNAc,-0.311
same,glycan array binding signal (z-score),[19],-0.373
same,glycan array binding signal (z-score),[20],-0.081
same,glycan array binding signal (z-score),[21],-0.264
same,glycan array binding signal (z-score),[22],-0.061
same,glycan array binding signal (z-score),[23],-0.208
same,glycan array binding signal (z-score),[24],-0.146
same,glycan array binding signal (z-score),[25],-0.311
same,glycan array binding signal (z-score),[26],-0.327
same,glycan array binding signal (z-score),[27],-0.225
same,glycan array binding signal (z-score),[28],-0.327
same,glycan array binding signal (z-score),[29],-0.308
same,glycan array binding signal (z-score),[30],-0.286
same,glycan array binding signal (z-score),[31],-0.185
same,glycan array binding signal (z-score),[32],-0.138

# Source: the supplement of paper PMC8728848
